The values that follow come from patent publication US20060063149A1.

Assay [1] has as its target chicken egg white lysozyme (chicken) (UniProt P00698). The experiment in a line: co-purification on nickel affinity chromatography; 14 kDa protein identified as chicken lysozyme by N-terminal sequencing.
Assay [2] concerns the target sAPPα (human) (UniProt P05067). The experiment in a line: dot blot, 10 µg spotted, POD-HuLYS diluted 1/1000.
The target of assay [3] is T1, Escherichia coli Ivy protein (Escherichia coli) (UniProt P0AD59).
T1 sequence: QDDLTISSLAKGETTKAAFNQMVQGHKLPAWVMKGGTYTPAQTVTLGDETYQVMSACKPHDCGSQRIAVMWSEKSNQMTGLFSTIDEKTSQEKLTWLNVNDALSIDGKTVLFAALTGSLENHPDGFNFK
The experiment in a line: HuLYS-POD protein overlay assay on blotted cell extract.

The target in assay [4] is sAPPα (human) (UniProt P05067). Briefly: dot blot, 10 µg spotted, POD-labeled human lysozyme diluted 1/1000.

No constants are given. Whether binding was seen depends on the method and setting. For some of these results: In cells and extracts the contact can be indirect. Some results given as binding are weak or reduced against the parent protein; the word gives no strength. For some of these results: Where a sequence is shown, tags or fusion partners need not be part of it.

B1: Tp17-HIS (protein)
chain: VSCTTVCPHAGKAKAEKVECALKGGIFRGTLPAADCPGIDTTVTFNADGTAQKVELALEKKSAPSPLTYRGTWMVREDGIVELSLVSSEQSKAPHEKELYELIDSNSVRYMGAPGAGKPSKEMAPFYVLKKTKK
As for B1, in assay [1], the binding entry is “binds”.

B2: Human Lysozyme-Horseradish Peroxidase conjugate (enzyme)
chain: KVFERCELARTLKRLGMDGYRGISLANWMCLAKWESGYNTRATNYNAGDRSTDYGIFQINSRYWCNDGKTPGAVNACHLSCSALLQDNIADAVACAKRVVRDPQGIRAWVAWRNRCQNRDVRQYVQGCGV
modifications: chemically conjugated to activated horseradish peroxidase (POD)
Take B2: the binding result (with sAPPα (human) [2]; in assay [3]; with sAPPα (human) [4]) was “binds” in each case.
